## Library screen at single concentrations

Data taken from ChEMBL document CHEMBL3988442, “University of Dundee, Small-Polar-MMV Screening Library” (2021).

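Assay of Toxoplasma gondii numbers, read through their beta-galactosidase reporter with a colour substrate. Tested at 50 µM. Higher reads as fewer parasites (inferred from which compounds were picked for retests). Size under these conditions: about 18,000 compounds, about 170 of them at 50% or above in at least one test.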

The filed quantity is “Percent Effect” (%).
How 0% and 100% were set is not recorded. Most values in the screen are low, and negative values occur.
The compounds are a random part of those screened.

- CNC(=O)Cc1csc(NC(=O)c2cccs2)n1 | 6.659%
- O=C1CC2(CCSC2)C(=O)N1Cc1ccc(Cl)cn1 (centres undefined) | -21.58%
- CC(C)CN(C)C(=O)NCc1nnc2n1CCCCC2 | 1.877%
- Cc1ccc(NC(=O)NCCS(=O)(=O)N(C)C)cc1Cl | 8.849%
- O=C(CSc1ccncc1)NCCn1cccc1 | 0.2843%
- COc1cc(C(C)O)cc(OC)c1O (centres undefined) | -17.86%
- CNC(=O)c1ccc(NS(=O)(=O)c2ccc(C)s2)cc1 | -21.11%
- CC(=O)c1ccc(C(C)(C)O)cc1 | -11.07%
- OC1CSCc2ccccc21 (centres undefined) | 5.195%
- CC(=O)N1CCN(Cc2nc(N)nc(N(C)C)n2)CC1 | -0.518%
- CCNC(=O)CCS(=O)(=O)C(C)c1ccc(F)cc1 (centres undefined) | 1.1%
- Cc1csc(CCNC(=O)CSCC#N)n1 | -3.488%
- COc1ccncc1NCc1cccc(C#N)c1 | -1.894%
- CS(=O)(=O)CC1(CNCc2cccnc2)CC1 | 0.9982%
- [O-][S+]1CCN(c2ccnc3ccc(Cl)cc23)CC1 | 2.661%
- O=C(Cc1cccnc1)N1CCc2[nH]nc(CO)c2C1 | 9.434%
- CCOC(=O)N1CCN(C(=O)c2cccc(F)c2)CC1 | -9.606%
- CC(NS(=O)(=O)c1ccccc1)c1ccccn1 (centres undefined) | 11.68%
- COCCN(Cc1ccc(C)s1)CC1(O)CCNC1 (centres undefined) | 19.44%
- CC(CNC(=O)c1cc(O)cs1)CN1CCOCC1 (centres undefined) | 36.4%
- O=C(NC1CCN(C2CCCC2)CC1)c1cnc[nH]1 | -6.123%
- CN(C)C(=O)C1CCCN(C(=O)c2ccccc2O)C1 (centres undefined) | -1.377%
- O=C(NC1CCN(C2CC2)CC1)c1ccncc1 | 17.83%
- Cc1c[nH]c(CN(C)c2cc(C3CC(O)C3)ncn2)n1 (centres undefined) | 1.223%
- CC(C)n1cc(C(=O)NCCC2CN(C)CCO2)cn1 (centres undefined) | -8.319%
- CCN(CC)CCCC1CCN(S(N)(=O)=O)CC1 | 0.2195%
- CC(C)CN1CCN(c2ccc(C(N)=O)nn2)CC1 | -0.2862%
- CCCN(C1CCNCC1)S(=O)(=O)CC1CCCCO1 (centres undefined) | 6.776%
- CN1CCC(CCO)CC1 | -0.02592%
- Cn1ccnc1N1CCN(C(=O)C2CCCOC2)CC1 (centres undefined) | 1.938%
- CCOc1cccc(CN(C)S(=O)(=O)c2cccs2)n1 | 2.943%
- COCCSCC(=O)N1CCOC(C)(C)C1 | -3.796%
- NC1(c2nc(C3CC3)cc(=O)[nH]2)CCCC1 | 11.82%
- Cc1noc(CN(C)CC2CCN(CC(C)O)CC2)n1 (centres undefined) | 2.974%
- NC1CCC(F)(F)CC1 | 0.9738%
- CC(C)Cc1cc(C(=O)N2CC=CC2CO)on1 (centres undefined) | -2.098%
- O=C(NCC(O)CN1CCOCC1)c1ccccc1I (centres undefined) | -2.456%
- Cc1cc2cc(C(=O)N3CCC[C@@H]3C(N)=O)ccc2o1 | 6.643%
- Cc1cc(C)cc(C(=O)NCCCNS(C)(=O)=O)c1 | 2.942%
- CN(C)C(=O)CCN1CCC(N)CC1 | -6.889%
- Cc1cc(C)nc(NC(=O)NC2CCC(O)CC2)c1 (centres undefined) | 31.49%
- N#Cc1cnn(C(=O)COCC2CC2)c1N | -7.74%
- CS(=O)(=O)NCc1nc(CCc2ccccc2)no1 | 2.667%
- CN1CCCC1CCSc1nc(N)c(C#N)cc1C#N (centres undefined) | -0.4089%
- Cn1cc(Br)c(=O)c(NC(=O)c2ccoc2)c1 | -16.1%
- O=C(CNc1cccc2ccccc12)N1CCNC1=O | -12.61%
- CC(C(N)=O)N1CCC(=Cc2ccccc2)CC1 (centres undefined) | 15.14%
- OC1CCCNCC1 (centres undefined) | 1.645%
- CC(CN)S(C)(=O)=O (centres undefined) | -9.707%
- CC(=O)NCCc1nc(-c2ccc(C)nn2)no1 | 0.4841%
- OC(c1ncc[nH]1)C1CCNCC1 (centres undefined) | -4.928%
- CN1CCC(N2CCN(Cc3cncn3C)CC2)CC1 | -3.62%
- CC(O)C(C)(C)NC(=O)c1cn2cccnc2n1 (centres undefined) | -6.231%
- Cc1cnn(CCNCCS(C)(=O)=O)c1 | 12.77%
- CSc1cccc(-n2c(CCN)n[nH]c2=O)c1 | -9.132%
- CNS(=O)(=O)c1ccc(C(=O)NCC2(C)CCC2)o1 | 1.461%